These are yes or no findings as the source states them, for the method shown. In cells and extracts the contact can be indirect. Some binding calls cover weakened binding; strength is not graded here.

For assay [1], the target named is T1, Cyclin-dependent kinase 5 regulatory subunit-associated protein 3 (UniProt Q96JB5).
T1 sequence: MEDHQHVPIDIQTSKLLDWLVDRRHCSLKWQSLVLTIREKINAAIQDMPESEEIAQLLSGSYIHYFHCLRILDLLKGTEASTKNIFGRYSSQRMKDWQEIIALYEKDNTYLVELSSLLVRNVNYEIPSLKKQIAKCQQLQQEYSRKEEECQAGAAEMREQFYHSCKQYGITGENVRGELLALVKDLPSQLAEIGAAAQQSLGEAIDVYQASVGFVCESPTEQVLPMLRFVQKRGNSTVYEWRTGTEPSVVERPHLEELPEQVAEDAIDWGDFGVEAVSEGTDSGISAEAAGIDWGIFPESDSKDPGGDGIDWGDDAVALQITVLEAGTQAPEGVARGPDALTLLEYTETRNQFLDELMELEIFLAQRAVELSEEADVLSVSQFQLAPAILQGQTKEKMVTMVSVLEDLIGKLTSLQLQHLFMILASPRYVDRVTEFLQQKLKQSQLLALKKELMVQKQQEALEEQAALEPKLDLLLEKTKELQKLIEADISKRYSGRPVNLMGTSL
Description: co-IP; lysates (50 mmol/L Tris pH 7.4, 150 mmol/L NaCl, 1% NP-40) of HGC-27 and 293T cells overexpressing CDK5RAP3 and MCM6; antibody against MCM6 or CDK5RAP3 overnight at 4 °C, Protein A-Sepharose, Western blot. (In general: In western blotting, separated proteins are transferred to a membrane and probed.)

In assay [2] the target is T2, minichromosome maintenance complex component 6 (UniProt Q14566).
T2 sequence: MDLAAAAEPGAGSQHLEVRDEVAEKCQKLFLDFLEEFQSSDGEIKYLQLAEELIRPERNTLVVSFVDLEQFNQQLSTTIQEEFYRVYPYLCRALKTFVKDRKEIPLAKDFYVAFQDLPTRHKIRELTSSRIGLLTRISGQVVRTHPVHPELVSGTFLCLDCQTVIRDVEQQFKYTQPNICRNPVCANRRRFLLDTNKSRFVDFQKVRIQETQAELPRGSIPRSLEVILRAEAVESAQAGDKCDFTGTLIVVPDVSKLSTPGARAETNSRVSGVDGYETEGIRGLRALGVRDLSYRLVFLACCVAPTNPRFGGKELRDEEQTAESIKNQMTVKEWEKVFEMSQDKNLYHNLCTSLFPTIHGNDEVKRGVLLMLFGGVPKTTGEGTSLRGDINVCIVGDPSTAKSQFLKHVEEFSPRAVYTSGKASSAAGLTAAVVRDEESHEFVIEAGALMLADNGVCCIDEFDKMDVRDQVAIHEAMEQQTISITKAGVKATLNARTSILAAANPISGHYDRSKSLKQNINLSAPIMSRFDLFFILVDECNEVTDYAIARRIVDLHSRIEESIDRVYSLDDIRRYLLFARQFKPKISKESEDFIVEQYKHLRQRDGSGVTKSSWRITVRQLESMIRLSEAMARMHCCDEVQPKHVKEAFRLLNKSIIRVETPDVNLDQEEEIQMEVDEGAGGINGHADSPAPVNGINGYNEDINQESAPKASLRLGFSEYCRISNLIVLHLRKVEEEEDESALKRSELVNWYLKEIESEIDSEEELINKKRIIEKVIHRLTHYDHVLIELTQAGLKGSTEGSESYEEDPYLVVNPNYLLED
The description is as above.

B1: minichromosome maintenance complex component 6 (protein, UniProt Q14566 1-821)
chain: MDLAAAAEPGAGSQHLEVRDEVAEKCQKLFLDFLEEFQSSDGEIKYLQLAEELIRPERNTLVVSFVDLEQFNQQLSTTIQEEFYRVYPYLCRALKTFVKDRKEIPLAKDFYVAFQDLPTRHKIRELTSSRIGLLTRISGQVVRTHPVHPELVSGTFLCLDCQTVIRDVEQQFKYTQPNICRNPVCANRRRFLLDTNKSRFVDFQKVRIQETQAELPRGSIPRSLEVILRAEAVESAQAGDKCDFTGTLIVVPDVSKLSTPGARAETNSRVSGVDGYETEGIRGLRALGVRDLSYRLVFLACCVAPTNPRFGGKELRDEEQTAESIKNQMTVKEWEKVFEMSQDKNLYHNLCTSLFPTIHGNDEVKRGVLLMLFGGVPKTTGEGTSLRGDINVCIVGDPSTAKSQFLKHVEEFSPRAVYTSGKASSAAGLTAAVVRDEESHEFVIEAGALMLADNGVCCIDEFDKMDVRDQVAIHEAMEQQTISITKAGVKATLNARTSILAAANPISGHYDRSKSLKQNINLSAPIMSRFDLFFILVDECNEVTDYAIARRIVDLHSRIEESIDRVYSLDDIRRYLLFARQFKPKISKESEDFIVEQYKHLRQRDGSGVTKSSWRITVRQLESMIRLSEAMARMHCCDEVQPKHVKEAFRLLNKSIIRVETPDVNLDQEEEIQMEVDEGAGGINGHADSPAPVNGINGYNEDINQESAPKASLRLGFSEYCRISNLIVLHLRKVEEEEDESALKRSELVNWYLKEIESEIDSEEELINKKRIIEKVIHRLTHYDHVLIELTQAGLKGSTEGSESYEEDPYLVVNPNYLLED
As for B1, the binding result in assay [1] is listed as “binds”.

B2: Cyclin-dependent kinase 5 regulatory subunit-associated protein 3 (protein, UniProt Q96JB5 1-506)
chain: MEDHQHVPIDIQTSKLLDWLVDRRHCSLKWQSLVLTIREKINAAIQDMPESEEIAQLLSGSYIHYFHCLRILDLLKGTEASTKNIFGRYSSQRMKDWQEIIALYEKDNTYLVELSSLLVRNVNYEIPSLKKQIAKCQQLQQEYSRKEEECQAGAAEMREQFYHSCKQYGITGENVRGELLALVKDLPSQLAEIGAAAQQSLGEAIDVYQASVGFVCESPTEQVLPMLRFVQKRGNSTVYEWRTGTEPSVVERPHLEELPEQVAEDAIDWGDFGVEAVSEGTDSGISAEAAGIDWGIFPESDSKDPGGDGIDWGDDAVALQITVLEAGTQAPEGVARGPDALTLLEYTETRNQFLDELMELEIFLAQRAVELSEEADVLSVSQFQLAPAILQGQTKEKMVTMVSVLEDLIGKLTSLQLQHLFMILASPRYVDRVTEFLQQKLKQSQLLALKKELMVQKQQEALEEQAALEPKLDLLLEKTKELQKLIEADISKRYSGRPVNLMGTSL
B2: the binding result in assay [2] is “binds”.

These data come from article PMC6746120.
